In the supplement of paper PMC10373366:
This is one part of the list. Many values rest on one well or one pass, so single values are uncertain.

Key:
A2780 = test: cell growth inhibition ratio vs untreated control (CCK8); higher = stronger inhibition of cell viability; conditions: 10 µM; 48 h
Method: (§1)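 Natural product library (Topscience) screened at 10 µM final concentration for 48 h on ovarian cancer A2780 cells and patient-derived ovarian cancer cells (PDC) in 96-well plates; viability read by CCK8 and reported as inhibition ratio (%) relative to untreated control. Single-dose primary screen.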

[1] = test system: patient-derived ovarian cancer cells (PDC); test: as above; conditions: 10 µM; 48 h
Method: as §1

Compound | cell growth inhibition ratio (A2780) | cell growth inhibition ratio [1]
O=C1C[C@@H](c2ccccc2)Oc2cc(O)cc(O)c21 [Pinocembrin] | 25.9% | 5.32%
NC(=O)c1cccnc1 [Nicotinamide] | -3.16% | 1.81%
CNC[C@@H](O)c1ccc(O)c(O)c1 [L-Adrenaline] | -2.33% | 11.4%
CC(=O)Oc1cccc2c1C(=O)c1c(OC(C)=O)cc(C(=O)O)cc1C2=O [Diacerein] | 4.46% | 0.786%
C[C@H]1[C@H](C)CC[C@]2(C(=O)O)CC[C@]3(C)C(=CC[C@@H]4[C@@]5(C)C[C@@H](O)[C@H](O)[C@@](C)(CO)[C@@H]5CC[C@]43C)[C@H]12 [Asiatic acid] | 9.24% | -12.2%
O=C(O)CCCCCCCC(O)C(O)CCCCCCO (configuration not stated) [Aleuritic Acid] | -2.21% | -12.5%
C=C[C@H]1[C@H](O[C@@H]2O[C@H](CO)[C@@H](O)[C@H](O)[C@H]2O)OC=C2C(=O)OCC[C@]21O [Swertiamarin] | 20.9% | 4.67%
COC(=O)C1=CO[C@@H](O[C@@H]2O[C@H](CO)[C@@H](O)[C@H](O)[C@H]2O)[C@@H]2[C@H](C)O[C@@H](O)C[C@H]12 [Morroniside] | 13.8% | -7.73%
C=C[C@@]1(C)CC(=O)[C@]2(O)[C@@]3(C)[C@@H](O)CCC(C)(C)[C@@H]3[C@H](O)[C@H](OC(C)=O)[C@@]2(C)O1 [Forskolin] | -22.9% | 6.7%
O=C1C[C@@H](c2ccc(O)cc2)Oc2cc(O)ccc21 [Liquiritigenin] | -33.7% | -3.53%
CC1(C)CC[C@]2(C(=O)O)[C@H](O)C[C@]3(C)C(=CC[C@@H]4[C@@]5(C)CC[C@H](O)C(C)(C)[C@@H]5CC[C@]43C)[C@H]2C1 [Echinocystic acid] | 7.26% | 15%

2 compounds picked at random from those above, as already listed:
Compound | cell growth inhibition ratio (A2780) | cell growth inhibition ratio [1]
C=C[C@H]1[C@H](O[C@@H]2O[C@H](CO)[C@@H](O)[C@H](O)[C@H]2O)OC=C2C(=O)OCC[C@]21O [Swertiamarin] | 20.9% | 4.67%
C[C@H]1[C@H](C)CC[C@]2(C(=O)O)CC[C@]3(C)C(=CC[C@@H]4[C@@]5(C)C[C@@H](O)[C@H](O)[C@@](C)(CO)[C@@H]5CC[C@]43C)[C@H]12 [Asiatic acid] | 9.24% | -12.2%
